Reference: the supplement of paper PMC12823440, “Inhibitors supercharge kinase turnover through native proteolytic circuits” (Nature, 2025)
Where a name gives a salt, the structure may show the parent alone. The list shows a part of the results. The calls rarely recur for the same compound in another form.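 Kinases, fused to nanoluciferase, were expressed in K562 cells; luminescence was measured every 4 h from 2 to 18 h as percent of control (DMSO = 100%, positive control = 0%). A time point is decreased if signal falls significantly (2 sigma). Hits were called by the authors by a rule that is not shown; the count of time points alone does not decide it.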

Sequences of proteins named here, by UniProt entry; tags and fusion partners are left off. A change or cut given only in a name is not applied to a line headed by its entry.
UniProt Q9Y616: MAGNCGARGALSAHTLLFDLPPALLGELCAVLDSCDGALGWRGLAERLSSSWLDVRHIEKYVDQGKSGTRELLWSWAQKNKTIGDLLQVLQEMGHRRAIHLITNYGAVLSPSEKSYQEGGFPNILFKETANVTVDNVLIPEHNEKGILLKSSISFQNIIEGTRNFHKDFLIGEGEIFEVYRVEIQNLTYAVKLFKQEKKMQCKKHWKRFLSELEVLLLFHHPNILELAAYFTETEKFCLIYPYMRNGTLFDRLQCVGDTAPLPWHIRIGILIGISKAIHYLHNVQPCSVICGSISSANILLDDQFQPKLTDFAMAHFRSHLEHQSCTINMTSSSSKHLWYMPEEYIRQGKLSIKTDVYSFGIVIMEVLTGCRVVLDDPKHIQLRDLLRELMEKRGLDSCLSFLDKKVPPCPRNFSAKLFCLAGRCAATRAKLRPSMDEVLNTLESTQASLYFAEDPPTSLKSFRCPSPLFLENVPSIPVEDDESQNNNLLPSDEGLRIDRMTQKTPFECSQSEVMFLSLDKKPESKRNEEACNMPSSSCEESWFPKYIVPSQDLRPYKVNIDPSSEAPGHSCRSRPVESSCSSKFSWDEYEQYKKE
UniProt P23458: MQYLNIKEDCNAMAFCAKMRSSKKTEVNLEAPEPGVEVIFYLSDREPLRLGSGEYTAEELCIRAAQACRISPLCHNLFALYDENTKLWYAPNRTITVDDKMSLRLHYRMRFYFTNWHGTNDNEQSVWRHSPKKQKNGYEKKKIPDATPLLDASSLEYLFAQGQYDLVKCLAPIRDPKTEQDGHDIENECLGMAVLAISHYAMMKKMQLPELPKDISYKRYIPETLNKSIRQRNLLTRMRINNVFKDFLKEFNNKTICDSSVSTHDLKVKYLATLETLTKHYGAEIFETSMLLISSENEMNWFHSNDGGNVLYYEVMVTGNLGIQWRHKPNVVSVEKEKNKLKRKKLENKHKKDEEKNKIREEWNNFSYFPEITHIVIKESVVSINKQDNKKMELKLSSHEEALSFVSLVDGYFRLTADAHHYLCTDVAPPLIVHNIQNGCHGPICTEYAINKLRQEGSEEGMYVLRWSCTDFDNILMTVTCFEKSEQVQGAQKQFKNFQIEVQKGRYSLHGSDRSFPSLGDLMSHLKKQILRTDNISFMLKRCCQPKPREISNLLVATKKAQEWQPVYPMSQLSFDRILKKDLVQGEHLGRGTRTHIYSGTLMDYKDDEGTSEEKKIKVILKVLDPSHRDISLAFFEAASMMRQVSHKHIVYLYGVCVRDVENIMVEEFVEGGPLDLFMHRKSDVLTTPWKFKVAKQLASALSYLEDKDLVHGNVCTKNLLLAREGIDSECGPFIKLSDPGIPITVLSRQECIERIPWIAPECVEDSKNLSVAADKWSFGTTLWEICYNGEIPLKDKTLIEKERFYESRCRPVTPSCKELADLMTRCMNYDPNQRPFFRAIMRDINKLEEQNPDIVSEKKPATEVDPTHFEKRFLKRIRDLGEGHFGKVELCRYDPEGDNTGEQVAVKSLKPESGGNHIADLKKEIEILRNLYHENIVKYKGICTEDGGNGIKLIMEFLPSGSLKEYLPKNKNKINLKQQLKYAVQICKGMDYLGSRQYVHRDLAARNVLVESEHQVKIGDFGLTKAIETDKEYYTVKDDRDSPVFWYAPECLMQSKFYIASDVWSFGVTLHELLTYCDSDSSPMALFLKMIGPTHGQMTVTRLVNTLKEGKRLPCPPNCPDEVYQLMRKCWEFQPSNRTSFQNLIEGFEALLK
UniProt P06239: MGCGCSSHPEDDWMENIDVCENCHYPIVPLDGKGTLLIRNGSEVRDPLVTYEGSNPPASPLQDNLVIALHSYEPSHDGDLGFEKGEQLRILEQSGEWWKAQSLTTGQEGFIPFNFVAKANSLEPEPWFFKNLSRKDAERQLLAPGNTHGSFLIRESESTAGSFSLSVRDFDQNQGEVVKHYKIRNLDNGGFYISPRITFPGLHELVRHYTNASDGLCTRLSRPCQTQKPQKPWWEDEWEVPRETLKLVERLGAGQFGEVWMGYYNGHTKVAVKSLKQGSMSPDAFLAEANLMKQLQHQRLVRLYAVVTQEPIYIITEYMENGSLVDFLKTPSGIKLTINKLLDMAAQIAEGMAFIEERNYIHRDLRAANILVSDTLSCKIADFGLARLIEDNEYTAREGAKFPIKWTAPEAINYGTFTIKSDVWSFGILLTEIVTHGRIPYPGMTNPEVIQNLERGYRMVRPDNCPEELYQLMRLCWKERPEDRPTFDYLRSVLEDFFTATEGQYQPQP
UniProt P53667: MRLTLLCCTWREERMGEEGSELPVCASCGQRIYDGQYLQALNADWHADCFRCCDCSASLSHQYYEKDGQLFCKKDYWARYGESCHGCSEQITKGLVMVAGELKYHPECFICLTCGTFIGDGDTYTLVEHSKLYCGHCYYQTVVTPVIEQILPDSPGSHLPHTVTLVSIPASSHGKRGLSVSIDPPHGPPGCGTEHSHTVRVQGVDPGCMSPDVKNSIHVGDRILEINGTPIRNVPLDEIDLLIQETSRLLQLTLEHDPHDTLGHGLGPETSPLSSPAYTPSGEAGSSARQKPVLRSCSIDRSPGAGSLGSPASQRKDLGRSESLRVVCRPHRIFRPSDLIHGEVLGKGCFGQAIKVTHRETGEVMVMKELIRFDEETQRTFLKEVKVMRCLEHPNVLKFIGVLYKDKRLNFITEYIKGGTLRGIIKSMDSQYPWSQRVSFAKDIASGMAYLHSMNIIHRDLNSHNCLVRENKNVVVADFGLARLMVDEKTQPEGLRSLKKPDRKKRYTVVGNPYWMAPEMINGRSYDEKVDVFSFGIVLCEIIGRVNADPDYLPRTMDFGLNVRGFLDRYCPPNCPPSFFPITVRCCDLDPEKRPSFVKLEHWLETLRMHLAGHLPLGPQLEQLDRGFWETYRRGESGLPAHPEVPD
UniProt P53671: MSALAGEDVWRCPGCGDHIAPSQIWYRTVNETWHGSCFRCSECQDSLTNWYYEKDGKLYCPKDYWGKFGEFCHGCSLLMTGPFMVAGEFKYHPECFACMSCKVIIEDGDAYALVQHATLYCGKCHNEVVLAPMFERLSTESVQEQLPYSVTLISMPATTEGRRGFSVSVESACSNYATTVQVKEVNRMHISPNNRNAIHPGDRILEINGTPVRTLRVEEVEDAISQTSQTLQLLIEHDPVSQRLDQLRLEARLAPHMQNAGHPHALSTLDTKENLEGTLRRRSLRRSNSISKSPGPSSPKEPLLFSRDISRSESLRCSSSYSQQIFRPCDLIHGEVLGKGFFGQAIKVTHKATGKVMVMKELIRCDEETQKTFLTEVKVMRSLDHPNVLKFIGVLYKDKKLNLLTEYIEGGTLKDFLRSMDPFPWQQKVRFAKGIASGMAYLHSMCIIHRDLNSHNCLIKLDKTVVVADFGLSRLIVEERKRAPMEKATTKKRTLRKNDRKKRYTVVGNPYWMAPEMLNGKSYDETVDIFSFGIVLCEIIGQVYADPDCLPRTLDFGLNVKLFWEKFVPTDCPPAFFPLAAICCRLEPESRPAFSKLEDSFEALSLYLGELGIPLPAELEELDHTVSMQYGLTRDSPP
UniProt Q8IWU2: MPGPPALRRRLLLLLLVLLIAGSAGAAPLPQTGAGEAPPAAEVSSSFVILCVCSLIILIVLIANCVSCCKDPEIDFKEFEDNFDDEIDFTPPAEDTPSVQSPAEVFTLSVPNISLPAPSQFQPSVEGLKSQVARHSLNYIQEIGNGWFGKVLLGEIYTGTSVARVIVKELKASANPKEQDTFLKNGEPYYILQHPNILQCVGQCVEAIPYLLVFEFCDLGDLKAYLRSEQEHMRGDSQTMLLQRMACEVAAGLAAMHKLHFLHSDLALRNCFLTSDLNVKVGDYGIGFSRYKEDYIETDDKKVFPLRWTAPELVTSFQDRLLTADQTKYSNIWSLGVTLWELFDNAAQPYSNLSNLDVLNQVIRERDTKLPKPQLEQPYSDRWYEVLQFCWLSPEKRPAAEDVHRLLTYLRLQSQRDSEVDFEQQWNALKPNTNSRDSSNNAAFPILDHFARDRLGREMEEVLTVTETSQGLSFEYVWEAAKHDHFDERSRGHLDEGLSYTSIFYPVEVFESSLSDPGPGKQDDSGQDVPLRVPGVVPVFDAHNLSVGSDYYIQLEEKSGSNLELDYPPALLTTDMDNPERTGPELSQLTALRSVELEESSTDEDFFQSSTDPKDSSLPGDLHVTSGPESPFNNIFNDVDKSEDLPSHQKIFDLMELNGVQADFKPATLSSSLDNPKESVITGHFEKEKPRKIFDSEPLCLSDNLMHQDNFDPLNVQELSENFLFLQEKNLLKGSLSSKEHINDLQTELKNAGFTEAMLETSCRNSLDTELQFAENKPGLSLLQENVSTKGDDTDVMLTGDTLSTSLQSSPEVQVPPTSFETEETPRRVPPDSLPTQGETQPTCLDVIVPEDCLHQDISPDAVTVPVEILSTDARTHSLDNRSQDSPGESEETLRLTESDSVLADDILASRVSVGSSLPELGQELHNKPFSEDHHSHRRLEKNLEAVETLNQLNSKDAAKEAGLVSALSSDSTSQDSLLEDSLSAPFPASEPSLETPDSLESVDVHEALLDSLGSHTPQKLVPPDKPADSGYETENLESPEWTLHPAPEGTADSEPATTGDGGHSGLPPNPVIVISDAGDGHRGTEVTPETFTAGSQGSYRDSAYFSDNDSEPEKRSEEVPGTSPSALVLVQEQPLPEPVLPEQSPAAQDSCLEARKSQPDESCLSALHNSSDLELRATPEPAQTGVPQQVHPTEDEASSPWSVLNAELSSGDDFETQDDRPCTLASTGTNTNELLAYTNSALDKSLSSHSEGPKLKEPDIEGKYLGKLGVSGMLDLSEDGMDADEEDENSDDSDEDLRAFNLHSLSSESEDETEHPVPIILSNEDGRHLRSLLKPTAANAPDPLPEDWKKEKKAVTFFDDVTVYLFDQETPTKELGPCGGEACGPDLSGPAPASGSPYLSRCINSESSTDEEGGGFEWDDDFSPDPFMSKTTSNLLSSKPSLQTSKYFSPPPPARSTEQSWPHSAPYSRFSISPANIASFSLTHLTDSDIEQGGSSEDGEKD
UniProt P07948: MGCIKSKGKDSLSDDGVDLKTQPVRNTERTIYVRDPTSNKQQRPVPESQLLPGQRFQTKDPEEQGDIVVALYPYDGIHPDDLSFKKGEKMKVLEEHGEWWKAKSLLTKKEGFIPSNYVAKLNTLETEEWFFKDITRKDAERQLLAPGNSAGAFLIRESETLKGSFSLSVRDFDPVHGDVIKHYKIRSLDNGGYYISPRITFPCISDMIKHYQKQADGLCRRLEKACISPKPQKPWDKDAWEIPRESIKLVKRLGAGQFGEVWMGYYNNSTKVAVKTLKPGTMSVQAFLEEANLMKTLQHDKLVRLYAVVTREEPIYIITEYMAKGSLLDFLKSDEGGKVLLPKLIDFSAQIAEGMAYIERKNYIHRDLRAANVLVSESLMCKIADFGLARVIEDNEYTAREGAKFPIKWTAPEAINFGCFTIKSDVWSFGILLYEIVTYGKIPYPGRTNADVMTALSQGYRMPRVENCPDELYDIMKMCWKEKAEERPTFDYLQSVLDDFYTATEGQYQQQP
UniProt Q12851: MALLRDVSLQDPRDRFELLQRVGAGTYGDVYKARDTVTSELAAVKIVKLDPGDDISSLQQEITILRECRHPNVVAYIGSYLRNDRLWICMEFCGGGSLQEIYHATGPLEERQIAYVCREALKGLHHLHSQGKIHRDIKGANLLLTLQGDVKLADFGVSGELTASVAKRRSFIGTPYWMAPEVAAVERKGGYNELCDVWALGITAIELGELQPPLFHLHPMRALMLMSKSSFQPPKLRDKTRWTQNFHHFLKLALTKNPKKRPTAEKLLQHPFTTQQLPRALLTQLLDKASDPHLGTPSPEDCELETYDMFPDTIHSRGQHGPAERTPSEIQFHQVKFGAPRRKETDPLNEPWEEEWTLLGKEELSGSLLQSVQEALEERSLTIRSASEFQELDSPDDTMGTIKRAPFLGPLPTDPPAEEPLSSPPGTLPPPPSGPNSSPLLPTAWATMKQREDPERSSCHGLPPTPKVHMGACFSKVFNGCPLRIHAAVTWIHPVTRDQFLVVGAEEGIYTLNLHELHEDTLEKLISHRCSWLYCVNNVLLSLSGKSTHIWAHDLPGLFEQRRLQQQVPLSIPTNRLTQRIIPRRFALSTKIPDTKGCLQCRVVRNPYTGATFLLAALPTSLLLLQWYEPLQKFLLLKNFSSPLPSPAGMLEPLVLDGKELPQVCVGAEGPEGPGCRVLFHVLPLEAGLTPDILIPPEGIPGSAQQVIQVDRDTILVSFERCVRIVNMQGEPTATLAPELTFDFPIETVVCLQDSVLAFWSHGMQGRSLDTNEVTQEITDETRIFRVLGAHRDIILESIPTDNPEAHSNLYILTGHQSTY

Legend:
Assay in all cases: kinase-Nluc reporter destabilization hit call (1 = scored as downregulated) (binary); higher = compound decreases kinase abundance
Details in all cases: K562; 2-18 h
IRAK3 = IRAK3 (UniProt Q9Y616)
JAK1 = JAK1 (UniProt P23458)
LCK = LCK (UniProt P06239)
LIMK1 = LIMK1 (UniProt P53667)
LIMK2 = LIMK2 (UniProt P53671)
LMTK2 = LMTK2 (UniProt Q8IWU2)
LYN = LYN (UniProt P07948)
MAP2K1 = MAP2K1 (UniProt Q02750)
MAP2K2 = MAP2K2 (UniProt P36507)
MAP4K2 = MAP4K2 (UniProt Q12851)

Measured: kinase-Nluc reporter destabilization hit call

COc1ccc2c(c1OC)OC1c3ccc(O)cc3OCC21 (stereo not given) [Methylnissolin] (10 µM)
inactive: IRAK3 = 0 | JAK1 = 0 | LCK 0 | LIMK1 = 0 | LIMK2 = 0 | LMTK2 = 0 | LYN 0 | MAP2K1 = 0 | MAP2K2 = 0 | MAP4K2 = 0

CCN(C)C(=O)c1ccc2c(C(=Nc3ccc(CN4CCCCC4)cc3)c3ccccc3)c(O)[nH]c2c1 (2.5 µM)
inactive: IRAK3 = 0 | JAK1 = 0 | LCK 0 | LIMK1 = 0 | LIMK2 = 0 | LMTK2 = 0 | LYN 0 | MAP2K1 = 0 | MAP2K2 = 0 | MAP4K2 = 0

O=C(O)c1ccc(-c2c[nH]c3ncc(-c4ccccc4)cc23)cc1C1CCCC1 (2.5 µM)
inactive: IRAK3 = 0 | JAK1 = 0 | LCK 0 | LIMK1 = 0 | LIMK2 = 0 | LMTK2 = 0 | LYN 0 | MAP2K1 = 0 | MAP2K2 = 0 | MAP4K2 = 0

CN1CC[C@H](c2c(O)cc(O)c3c(=O)cc(-c4ccc(C(F)(F)F)cc4Cl)oc23)[C@H]1CO [(2S,3R)-Voruciclib (hydrochloride)] (2.5 µM)
inactive: IRAK3 = 0 | JAK1 = 0 | LCK 0 | LIMK1 = 0 | LIMK2 = 0 | LMTK2 = 0 | LYN 0 | MAP2K1 = 0 | MAP2K2 = 0 | MAP4K2 = 0

CCN1C(=O)CNc2ncc(-c3ccc(-c4nc[nH]n4)nc3C)nc21 [CC-115 (hydrochloride)] (2.5 µM)
inactive: IRAK3 = 0 | JAK1 = 0 | LCK 0 | LIMK1 = 0 | LIMK2 = 0 | LMTK2 = 0 | LYN 0 | MAP2K1 = 0 | MAP2K2 = 0 | MAP4K2 = 0

N#C/C(=C\c1ccc2oc(=O)[nH]c2c1)C(=O)c1ccc(O)c(O)c1 (10 µM)
inactive: IRAK3 = 0 | JAK1 = 0 | LCK 0 | LIMK1 = 0 | LIMK2 = 0 | LMTK2 = 0 | LYN 0 | MAP2K1 = 0 | MAP2K2 = 0 | MAP4K2 = 0

Nc1cc(C(F)F)c(-c2nc(N3C4CCC3COC4)nc(N3C4CCC3COC4)n2)cn1 (2.5 µM)
inactive: IRAK3 = 0 | JAK1 = 0 | LCK 0 | LIMK1 = 0 | LIMK2 = 0 | LMTK2 = 0 | LYN 0 | MAP2K1 = 0 | MAP2K2 = 0 | MAP4K2 = 0

O[C@H]1CC[C@H](Nc2ncc3nc(Nc4c(F)cc(F)cc4F)n([C@H]4CCOC4)c3n2)CC1 [Tanzisertib] (10 µM)
inactive: IRAK3 = 0 | JAK1 = 0 | LCK 0 | LIMK1 = 0 | LIMK2 = 0 | LMTK2 = 0 | LYN 0 | MAP2K1 = 0 | MAP2K2 = 0 | MAP4K2 = 0

O=c1cc(-c2ccc(O)c(O)c2O)oc2ccccc12 (10 µM)
inactive: IRAK3 = 0 | JAK1 = 0 | LCK 0 | LIMK1 = 0 | LIMK2 = 0 | LMTK2 = 0 | LYN 0 | MAP2K1 = 0 | MAP2K2 = 0 | MAP4K2 = 0

O=c1ccc2ccc(O)c(O)c2o1 [Daphnetin] (10 µM)
inactive: IRAK3 = 0 | JAK1 = 0 | LCK 0 | LIMK1 = 0 | LIMK2 = 0 | LMTK2 = 0 | LYN 0 | MAP2K1 = 0 | MAP2K2 = 0 | MAP4K2 = 0

N#Cc1ccc(-c2c(-c3ncn[nH]3)sc(N3CCOCC3)c2C#N)c(F)c1 (10 µM)
inactive: IRAK3 = 0 | JAK1 = 0 | LCK 0 | LIMK1 = 0 | LIMK2 = 0 | LMTK2 = 0 | LYN 0 | MAP2K1 = 0 | MAP2K2 = 0 | MAP4K2 = 0

COc1cc(N2CCC(O)CC2)ccc1Nc1cc(Nc2ccccc2S(=O)(=O)C(C)C)c2cc[nH]c2n1 (10 µM)
inactive: IRAK3 = 0 | JAK1 = 0 | LCK 0 | LIMK1 = 0 | LIMK2 = 0 | LMTK2 = 0 | LYN 0 | MAP2K1 = 0 | MAP2K2 = 0 | MAP4K2 = 0

COc1nc(-c2cccc3c2OCCO3)ccc1Nc1ccc(CN(C)C)cc1 [RAS inhibitor Abd-7] (10 µM)
inactive: IRAK3 = 0 | JAK1 = 0 | LCK 0 | LIMK1 = 0 | LIMK2 = 0 | LMTK2 = 0 | LYN 0 | MAP2K1 = 0 | MAP2K2 = 0 | MAP4K2 = 0

CCCCOc1ccc(CC/C=C2\SC(=O)N(CCN)C2=O)cc1 [K145 (hydrochloride)] (2.5 µM)
inactive: IRAK3 = 0 | JAK1 = 0 | LCK 0 | LIMK1 = 0 | LIMK2 = 0 | LMTK2 = 0 | LYN 0 | MAP2K1 = 0 | MAP2K2 = 0 | MAP4K2 = 0

COc1ccc(CN2C3CC2CN(c2ccc(-c4cc(OCC(C)(C)O)cn5ncc(C#N)c45)cn2)C3)cn1 [Selpercatinib] (10 µM)
inactive: IRAK3 = 0 | JAK1 = 0 | LCK 0 | LIMK1 = 0 | LIMK2 = 0 | LMTK2 = 0 | LYN 0 | MAP2K1 = 0 | MAP2K2 = 0 | MAP4K2 = 0

CCCCNC(=N)NC(=N)N [Buformin (hydrochloride)] (2.5 µM)
inactive: IRAK3 = 0 | JAK1 = 0 | LCK 0 | LIMK1 = 0 | LIMK2 = 0 | LMTK2 = 0 | LYN 0 | MAP2K1 = 0 | MAP2K2 = 0 | MAP4K2 = 0

CC(C)c1cc(/C=C(\C#N)C(N)=O)cc(C(C)C)c1O (10 µM)
inactive: IRAK3 = 0 | JAK1 = 0 | LCK 0 | LIMK1 = 0 | LIMK2 = 0 | LMTK2 = 0 | LYN 0 | MAP2K1 = 0 | MAP2K2 = 0 | MAP4K2 = 0

A draw from above in order of length of the SMILES, falling.
COc1nc(-c2cccc3c2OCCO3)ccc1Nc1ccc(CN(C)C)cc1 [RAS inhibitor Abd-7] (10 µM)
inactive: IRAK3 = 0 | JAK1 = 0 | LCK 0 | LIMK1 = 0 | LIMK2 = 0 | LMTK2 = 0 | LYN 0 | MAP2K1 = 0 | MAP2K2 = 0 | MAP4K2 = 0

CC(C)c1cc(/C=C(\C#N)C(N)=O)cc(C(C)C)c1O (10 µM)
inactive: IRAK3 = 0 | JAK1 = 0 | LCK 0 | LIMK1 = 0 | LIMK2 = 0 | LMTK2 = 0 | LYN 0 | MAP2K1 = 0 | MAP2K2 = 0 | MAP4K2 = 0

CCCCNC(=N)NC(=N)N [Buformin (hydrochloride)] (2.5 µM)
inactive: IRAK3 = 0 | JAK1 = 0 | LCK 0 | LIMK1 = 0 | LIMK2 = 0 | LMTK2 = 0 | LYN 0 | MAP2K1 = 0 | MAP2K2 = 0 | MAP4K2 = 0

Further entries follow.

CC(C)(O)[C@@H]1CC[C@](C)([C@H]2[C@@H](O)C[C@@]3(C)[C@@H]4C[C@H](O[C@@H]5O[C@H](CO)[C@@H](O)[C@H](O)[C@H]5O)[C@H]5C(C)(C)[C@@H](O[C@@H]6OC[C@@H](O)[C@H](O)[C@H]6O[C@@H]6O[C@H](CO)[C@@H](O)[C@H](O)[C@H]6O)CC[C@@]56C[C@@]46CC[C@]23C)O1 [Astragaloside VI] (10 µM)
inactive: IRAK3 = 0 | JAK1 = 0 | LCK 0 | LIMK1 = 0 | LIMK2 = 0 | LMTK2 = 0 | LYN 0 | MAP2K1 = 0 | MAP2K2 = 0 | MAP4K2 = 0

CC[C@@H]1[C@H](F)C(=O)N[C@@H]1COc1nccc2cc(C(N)=O)c(OC)cc12 (10 µM)
inactive: IRAK3 = 0 | JAK1 = 0 | LCK 0 | LIMK1 = 0 | LIMK2 = 0 | LMTK2 = 0 | LYN 0 | MAP2K1 = 0 | MAP2K2 = 0 | MAP4K2 = 0

C=CC(=O)N1CCC[C@@H](n2nc(C(=O)Nc3ccc(CC(=O)N(C)C)c(C)c3C)c3c(N)ncnc32)C1 (10 µM)
inactive: IRAK3 = 0 | JAK1 = 0 | LCK 0 | LIMK1 = 0 | LIMK2 = 0 | LMTK2 = 0 | LYN 0 | MAP2K1 = 0 | MAP2K2 = 0 | MAP4K2 = 0

COc1cc(N2CCC(N(C)C)CC2)ccc1Nc1ncc(Cl)c(Nc2ccccc2P(C)(C)=O)n1 (2.5 µM)
inactive: IRAK3 = 0 | JAK1 = 0 | LCK 0 | LIMK1 = 0 | LIMK2 = 0 | LMTK2 = 0 | LYN 0 | MAP2K1 = 0 | MAP2K2 = 0 | MAP4K2 = 0

Nc1cc(C(F)(F)F)c(-c2nc(N3CCOCC3)nc(N3CCOCC3)n2)cn1 [Bimiralisib] (10 µM)
inactive: IRAK3 = 0 | JAK1 = 0 | LCK 0 | LIMK1 = 0 | LIMK2 = 0 | LMTK2 = 0 | LYN 0 | MAP2K1 = 0 | MAP2K2 = 0 | MAP4K2 = 0

NCCCCCCNS(=O)(=O)c1cccc2c(Cl)cccc12 [W-7 (hydrochloride)] (10 µM)
inactive: IRAK3 = 0 | JAK1 = 0 | LCK 0 | LIMK1 = 0 | LIMK2 = 0 | LMTK2 = 0 | LYN 0 | MAP2K1 = 0 | MAP2K2 = 0 | MAP4K2 = 0

CC(C)C[C@H](NC(=O)[C@H](CCCCN)NC(=O)[C@H](CO)NC(=O)[C@@H](N)CC(C)C)C(N)=O [LSKL, Inhibitor of Thrombospondin (TSP-1) (TFA)] (10 µM)
inactive: IRAK3 = 0 | JAK1 = 0 | LCK 0 | LIMK1 = 0 | LIMK2 = 0 | LMTK2 = 0 | LYN 0 | MAP2K1 = 0 | MAP2K2 = 0 | MAP4K2 = 0

C[C@H]1[C@H](OC(=O)CCC(=O)O)O[C@@H]2O[C@@]3(C)CC[C@H]4[C@H](C)CC[C@@H]1[C@@]24OO3 [Artesunate] (2.5 µM)
inactive: IRAK3 = 0 | JAK1 = 0 | LCK 0 | LIMK1 = 0 | LIMK2 = 0 | LMTK2 = 0 | LYN 0 | MAP2K1 = 0 | MAP2K2 = 0 | MAP4K2 = 0

O=c1nc(N2CCOCC2)oc2c(-c3cccc4c3sc3ccccc34)cccc12 (10 µM)
inactive: IRAK3 = 0 | JAK1 = 0 | LCK 0 | LIMK1 = 0 | LIMK2 = 0 | LMTK2 = 0 | LYN 0 | MAP2K1 = 0 | MAP2K2 = 0 | MAP4K2 = 0

CCOc1c([C@H](C)n2nc(C)c3c(N)ncnc32)cc(Cl)c(F)c1[C@@H]1CNC(=O)C1 [Parsaclisib (hydrochloride)] (10 µM)
inactive: IRAK3 = 0 | JAK1 = 0 | LCK 0 | LIMK1 = 0 | LIMK2 = 0 | LMTK2 = 0 | LYN 0 | MAP2K1 = 0 | MAP2K2 = 0 | MAP4K2 = 0

O=C(CCCCCn1cc(Nc2ncc(Cl)c(Nc3ccc(Cl)cc3)n2)cn1)NO (2.5 µM)
inactive: IRAK3 = 0 | JAK1 = 0 | LCK 0 | LIMK1 = 0 | LIMK2 = 0 | LMTK2 = 0 | LYN 0 | MAP2K1 = 0 | MAP2K2 = 0 | MAP4K2 = 0

COc1ccc2c(Oc3ccc(NC(=O)c4c(C)n(CC(C)(C)O)n(-c5ccccc5)c4=O)cc3F)ccnc2c1 (2.5 µM)
inactive: IRAK3 = 0 | JAK1 = 0 | LCK 0 | LIMK1 = 0 | LIMK2 = 0 | LMTK2 = 0 | LYN 0 | MAP2K1 = 0 | MAP2K2 = 0 | MAP4K2 = 0

CCc1cccc(CC)c1NC(=O)c1nn(C)c2c1CCc1cnc(Nc3ccc(C(=O)NC4CCN(C)CC4)cc3OC(F)(F)F)nc1-2 (2 µM)
inactive: IRAK3 = 0 | JAK1 = 0 | LCK 0 | LIMK1 = 0 | LIMK2 = 0 | LMTK2 = 0 | LYN 0 | MAP2K1 = 0 | MAP2K2 = 0 | MAP4K2 = 0

CC(CCc1ccccn1)(CCc1ccccn1)C(=O)c1ccccc1 (10 µM)
inactive: IRAK3 = 0 | JAK1 = 0 | LCK 0 | LIMK1 = 0 | LIMK2 = 0 | LMTK2 = 0 | LYN 0 | MAP2K1 = 0 | MAP2K2 = 0 | MAP4K2 = 0

COC(=O)N[C@@H](C)CNc1nccc(-c2cn(C(C)C)nc2-c2cc(Cl)cc(NS(C)(=O)=O)c2F)n1 [Encorafenib] (10 µM)
inactive: IRAK3 = 0 | JAK1 = 0 | LCK 0 | LIMK1 = 0 | LIMK2 = 0 | LMTK2 = 0 | LYN 0 | MAP2K1 = 0 | MAP2K2 = 0 | MAP4K2 = 0

CN(C)C(=O)c1ccc(S(=O)(=O)c2ccc(NC(=O)[C@@](C)(O)C(F)(F)F)c(Cl)c2)cc1 (10 µM)
inactive: IRAK3 = 0 | JAK1 = 0 | LCK 0 | LIMK1 = 0 | LIMK2 = 0 | LMTK2 = 0 | LYN 0 | MAP2K1 = 0 | MAP2K2 = 0 | MAP4K2 = 0

O=Nc1c(-c2c(O)[nH]c3ccccc23)[nH]c2ccccc12 [Indirubin-3'-monoxime] (2.5 µM)
inactive: IRAK3 = 0 | JAK1 = 0 | LCK 0 | LIMK1 = 0 | LIMK2 = 0 | LMTK2 = 0 | LYN 0 | MAP2K1 = 0 | MAP2K2 = 0 | MAP4K2 = 0
